# Measured values taken from US20250041624A1, “METHOD FOR ENHANCING ACTIVITY OF PHOTOSENSITIZER BY MAGNETIC FIELD” (PEKING UNIVERSITY, priority 2021, published 2025).
# At least one compound was matched to its structure with a doubt left.
# Columns and labels:
# Bax/Bcl-2 = assay: Western blot of Bax/Bcl-2 in HeLa cells; format: cell-based; settings: RB 30 μmol/L treated HeLa; light; 800 mT vs no magnetic field
# Procedure: (§1) HeLa cells (2×10^4/well) are seeded in 6-well plates and cultured for 24 hours, added with RB solution (final concentration 30 μmol/L) or PBS buffer (final concentration 0.01 mol/L), and after treating 24 hours, cells are washed 3 times with PBS buffer.
# (§2) The cells are placed under a magnetic field at 0, 250 or 800 mT, simultaneously with light (561 nm, 5 mW·cm^−2) or in the dark. After 24 hours treatment, cells are washed with PBS buffer and collect by centrifugation. Protein is extracted from cells using RIPA lysis buffer (medium lysis strength). Target protein is detected with primary antibody, to identify cleaved Caspase-3 protease, Bax (BCL2-Associated X protein) and Bcl-2 (B lymphocytomatose-2 gene), respectively, with β-Actin antibody as the reference. Images are acquired by Bio-Rad ChemiDoc touch imaging system, and results are shown in FIG. 14, in which, group A is PBS buffer treated HeLa cells (light, no magnetic field); group B is RB treated HeLa cells (light, no magnetic field); group C is RB-treated Hela cells (light, 250 mT magnetic field); group D is RB-treated Hela cells (light, 800 mT magnetic field).
# (§3) The change rate of protein expression is (AB−A0)/A0×100%, where AB and A0 are protein expression with and without magnetic field, respectively (obtained by ImageJ software analyzing the bands in FIG. 14).
# cleaved Caspase-3 = assay: Western blot of cleaved Caspase-3 in HeLa cells; format: cell-based; settings: RB 30 μmol/L treated HeLa; light; 800 mT vs no magnetic field
# Procedure: as §1, §2, §3
smiles,measurement,setting,value
"O=C1OC2(c3cc(I)c(O)c(I)c3Oc3c2cc(I)c(O)c3I)c2c(Cl)c(Cl)c(Cl)c(Cl)c21 [RB, Rose Bengal]",change rate of Bax/Bcl-2 expression (%),Bax/Bcl-2,−(32.2 ± 2.7) %
same,change rate of cleaved Caspase-3 expression (%),cleaved Caspase-3,−(14.3 ± 4.5) %
